Test results as given in US6117840A (Cytel Corporation, priority 1997, dated 2000).
Strings that start with PEPTIDE1 are HELM notation: dots part the residues, brackets hold end groups and non-standard residues.

Assay: Fmoc solid-phase peptide synthesis; Rink amide MBHA resin; DIC/HOBt
Conditions: whole synthesis, scale 5 mmoles

PEPTIDE1{[PhAc].L.D.F.[dP].[am]}$$$$V2.0
isolated mass: 1.8 g
